These are yes or no findings as the source states them, for the method shown. Some entries that bind do so weakly or less than the wild type. Where a sequence is shown, tags or fusion partners need not be part of it.
Experiments:
[1] = molecular target: GST-tagged OPTN (optineurin) (UniProt Q96CV9); assay: pull-down; purified GST-tagged protein (20 ug) and His6-tagged protein (20 ug) with 50 uL Glutathione Sepharose 4B, 4°C overnight in 1 mL buffer (20 mM Tris-HCl, 5 mM MgCl2, 100 mM NaCl, 1 mM EDTA, 1% NP-40, 1 mM DTT, pH 7.4, 10 mg/L BSA); five washes; immunoblotting; both purified
GST-tagged p62 = GST-tagged p62 (UniProt Q13501); assay: as above

Protein sequences, listed by entry. Tags and fused reporters are not part of them.
UniProt Q96CV9: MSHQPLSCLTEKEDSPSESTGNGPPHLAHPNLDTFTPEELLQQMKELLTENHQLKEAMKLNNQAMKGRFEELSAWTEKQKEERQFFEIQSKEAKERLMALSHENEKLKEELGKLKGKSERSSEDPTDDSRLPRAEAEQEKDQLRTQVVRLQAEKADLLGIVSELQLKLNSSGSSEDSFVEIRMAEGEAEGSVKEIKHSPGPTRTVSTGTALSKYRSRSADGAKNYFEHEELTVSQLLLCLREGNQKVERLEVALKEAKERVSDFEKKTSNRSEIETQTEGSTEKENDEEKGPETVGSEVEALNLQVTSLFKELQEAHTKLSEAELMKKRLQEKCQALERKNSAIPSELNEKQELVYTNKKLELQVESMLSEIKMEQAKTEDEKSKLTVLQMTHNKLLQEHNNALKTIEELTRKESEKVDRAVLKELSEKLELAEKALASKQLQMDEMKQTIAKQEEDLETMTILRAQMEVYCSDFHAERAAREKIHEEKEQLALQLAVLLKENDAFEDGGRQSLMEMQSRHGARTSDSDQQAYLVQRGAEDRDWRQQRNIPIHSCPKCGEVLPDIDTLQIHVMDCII

binding [1]: binds
B1: His6-tagged HACE1 (protein, UniProt Q8IYU2 1-909)
chain: MERAMEQLNRLTRSLRRARTVELPEDNETAVYTLMPMVMADQHRSVSELLSNSKFDVNYAFGRVKRSLLHIAANCGSVECLVLLLKKGANPNYQDISGCTPLHLAARNGQKKCMSKLLEYSADVNICNNEGLTAIHWLAVNGRTELLHDLVQHVSDVDVEDAMGQTALHVACQNGHKTTVQCLLDSGADINRPNVSGATPLYFACSHGQRDTAQILLLRGAKYLPDKNGVTPLDLCVQGGYGETCEVLIQYHPRLFQTIIQMTQNEDLRENMLRQVLEHLSQQSESQYLKILTSLAEVATTNGHKLLSLSSNYDAQMKSLLRIVRMFCHVFRIGPSSPSNGIDMGYNGNKTPRSQVFKPLELLWHSLDEWLVLIATELMKNKRDSTEITSILLKQKGQDQDAASIPPFEPPGPGSYENLSTGTRESKPDALAGRQEASADCQDVISMTANRLSAVIQAFYMCCSCQMPPGMTSPRFIEFVCKHDEVLKCFVNRNPKIIFDHFHFLLECPELMSRFMHIIKAQPFKDRCEWFYEHLHSGQPDSDMVHRPVNENDILLVHRDSIFRSSCEVVSKANCAKLKQGIAVRFHGEEGMGQGVVREWFDILSNEIVNPDYALFTQSADGTTFQPNSNSYVNPDHLNYFRFAGQILGLALNHRQLVNIYFTRSFYKHILGIPVNYQDVASIDPEYAKNLQWILDNDISDLGLELTFSVETDVFGAMEEVPLKPGGGSILVTQNNKAEYVQLVTELRMTRAIQPQINAFLQGFHMFIPPSLIQLFDEYELELLLSGMPEIDVSDWIKNTEYTSGYEREDPVIQWFWEVVEDITQEERVLLLQFVTGSSRVPHGGFANIMGGSGLQNFTIAAVPYTPNLLPTSSTCINMLKLPEYPSKEILKDRLLVALHCGSYGYTMA
binding (GST-tagged p62): no binding (tested: 20 ug of each protein in 1 mL)
